# Measurements taken from PubChem BioAssay AID1439 (NMMLSC, 2008).
# The chains behind the UniProt entries cited, without tags or fusion partners.
# UniProt P09471, whole entry, looked up: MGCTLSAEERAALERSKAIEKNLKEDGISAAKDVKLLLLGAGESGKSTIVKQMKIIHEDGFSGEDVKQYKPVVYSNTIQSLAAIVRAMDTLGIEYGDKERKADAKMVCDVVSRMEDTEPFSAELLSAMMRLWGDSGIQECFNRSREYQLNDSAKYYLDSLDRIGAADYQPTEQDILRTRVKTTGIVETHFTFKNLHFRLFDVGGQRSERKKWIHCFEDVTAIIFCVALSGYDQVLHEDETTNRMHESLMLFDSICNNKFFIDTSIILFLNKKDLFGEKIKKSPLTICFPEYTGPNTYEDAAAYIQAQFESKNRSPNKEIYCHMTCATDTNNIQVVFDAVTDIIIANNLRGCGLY
# Out of some 220,000 compounds screened, about 770 (0.35%) were called active. This list was built around the results that the source calls inconclusive (neither active nor inactive); the mix of calls is not that of the screen. Cut-off read from the data, not from the text of the source: active = binding response below about 49% or above about 150%; inconclusive = no clear call, values can overlap the other calls; inactive = in between.
# Target: Guanine nucleotide-binding protein G(o) subunit alpha (Homo sapiens) (UniProt P09471)
# Assay: RGS7-Galphao binding modulators, primary screen, biochemical, multiplexed bead flow cytometry (AID 1439);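 note: fluorescent Galphao held in activated GDP-AlF4 state binding bead-coupled RGS7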
# Conditions: at 10 µM, actives lie on both sides
row,Structure (SMILES),binding response (% of control)
1,O=S(=O)(NC1=NCCCCC1)c1ccccc1Cl,inconclusive: 188%
2,O=C(CSc1ccc(-c2ccc(Cl)cc2)nn1)Nc1ccc2c(c1)OCCO2,inactive: 102%
3,COCC(=O)NC1CCCCCC1,inconclusive: 93.2%
4,CCOc1cc(NC(=O)c2cccs2)c(OCC)cc1NC(=O)CCC(=O)NCC1CCCO1 (stereo unspecified),inconclusive: 116%
5,CSc1sc(C#N)c2c1/C(=N\O)CCC2,inconclusive: 119%
6,O=C(CCNc1n[nH]c(=O)[nH]c1=O)N/N=C\c1ccc(Br)cc1,inconclusive: 103%
7,CCCN(CCC)CCNC(=O)c1cc2c(=O)n(CC)c3ccccc3c2s1,inconclusive: 112%
8,O=C(NCCCn1ccnc1)C(=O)Nc1ccccc1,inactive: 98.3%
9,CCCN1CCC(=O)N(CCSc2ccc(C)cc2)CC1,inconclusive: 112%
10,COc1ccc(/C=C/C(=O)NC(=S)N2CCN(c3ccccn3)CC2)cc1,inconclusive: 152%
11,CCN1CCc2nc3ccccc3c(C(=O)Nc3ccc(NC(C)=O)cc3)c2C1,inconclusive: 23.3%
12,COc1cc(/C=N/NC(=O)c2c(C)nnn2-c2nonc2N)ccc1O,inconclusive: 116%
13,CC(=O)c1cccc(NC(=O)NCCc2c[nH]c3ccccc23)c1,inconclusive: 86.4%
14,COC(=O)c1ccc(C(=O)OC)c(NC(=S)N2CCC(N3CCCCC3)CC2)c1,inconclusive: 106%
15,CCCn1c(NCc2c[nH]c3ccccc23)nc2ccccc21,inactive: 103%
16,CC(=O)N1CCN(c2ccc(NC(=S)NC(=O)c3ccc(C)c([N+](=O)[O-])c3)cc2)CC1,inconclusive: 111%
17,Cc1cc(N/N=C/c2ccc(F)cc2)nc(NCc2ccccc2)n1,inconclusive: -86.6%
18,CC(=O)c1sccc1NC(=O)c1ccccc1C(=O)O,inconclusive: 117%
19,CCOC(=O)C(=O)NN=C(c1ccccc1)c1ccccc1,inconclusive: 46.3%
20,O=C1NC(=O)C2C1C(c1cccs1)NN2Cc1ccccc1 (stereo unspecified),inconclusive: 97.8%
21,CCCn1nc2cc(C(=O)NCCc3ccc(C)cc3)ccc2c1OCC,inactive: 107%
22,O=C(O)C1C2CC3C(OC(=O)C31)C2Cl (stereo unspecified),inactive: 103%
23,CNc1nnc(C(F)(F)F)s1,inconclusive: 95.3%

# 11 of the compounds above, with bars between the fields:
row | Structure (SMILES) | binding response (% of control)
5 | CSc1sc(C#N)c2c1/C(=N\O)CCC2 | inconclusive: 119%
8 | O=C(NCCCn1ccnc1)C(=O)Nc1ccccc1 | inactive: 98.3%
10 | COc1ccc(/C=C/C(=O)NC(=S)N2CCN(c3ccccn3)CC2)cc1 | inconclusive: 152%
13 | CC(=O)c1cccc(NC(=O)NCCc2c[nH]c3ccccc23)c1 | inconclusive: 86.4%
14 | COC(=O)c1ccc(C(=O)OC)c(NC(=S)N2CCC(N3CCCCC3)CC2)c1 | inconclusive: 106%
16 | CC(=O)N1CCN(c2ccc(NC(=S)NC(=O)c3ccc(C)c([N+](=O)[O-])c3)cc2)CC1 | inconclusive: 111%
17 | Cc1cc(N/N=C/c2ccc(F)cc2)nc(NCc2ccccc2)n1 | inconclusive: -86.6%
18 | CC(=O)c1sccc1NC(=O)c1ccccc1C(=O)O | inconclusive: 117%
19 | CCOC(=O)C(=O)NN=C(c1ccccc1)c1ccccc1 | inconclusive: 46.3%
20 | O=C1NC(=O)C2C1C(c1cccs1)NN2Cc1ccccc1 (stereo unspecified) | inconclusive: 97.8%
21 | CCCn1nc2cc(C(=O)NCCc3ccc(C)cc3)ccc2c1OCC | inactive: 107%

# Additional results follow:

row,Structure (SMILES),binding response (% of control)
1,CCOc1ccccc1OCC(=O)NNC(=O)Cn1cnc2c1c(=O)n(C)c(=O)n2C,inconclusive: 89.3%
2,CCC(Sc1ccc(C(=O)O)cc1)C(=O)O (stereo unspecified),inactive: 106%
3,Cc1cc2nc3n(c2cc1C)CC1CC(C(=O)NCc2cccc(C(F)(F)F)c2)N(C)C31 (stereo unspecified),inconclusive: 82.3%
4,O=c1[nH]ncc(N/N=C\c2ccncc2)c1Cl,inconclusive: 89.2%
5,Cc1cc2c(sc3c(C)ccc(C)c32)c(C)n1,inconclusive: 98.8%
6,Cc1ccc(S(=O)(=O)CC(C)(O)CS(=O)(=O)c2ccc(C)cc2)cc1,inconclusive: 173%
7,COc1cccc(-c2cc(C(F)(F)F)n3nc(C(=O)N4CCCCC4c4cccnc4)cc3n2)c1 (stereo unspecified),inactive: 96.7%
8,C=CCc1ccc2oc(C(=O)OCC)cc(=O)c2c1O,inconclusive: 105%
9,Nc1oc2ccc(F)cc2c(=O)c1C=O,inactive: 92%
10,COc1ccc(CC(=O)c2ccc(O)cc2O)cc1,inconclusive: 104%
11,CC(C(=O)NC1CC1)c1ncc(C(F)(F)F)cc1Cl (stereo unspecified),inactive: 102%
12,CC(C)C[C@@H]1NC(=O)[C@H](Cc2ccc(O)cc2)NC(=O)[C@H](CCC(N)=O)NC(=O)c2cc([N+](=O)[O-])cc(I)c2NCC[C@@H](C(N)=O)NC1=O,inactive: 97.2%
13,CNC(=S)NCCc1c[nH]c2ccc(OC)cc12,inconclusive: 116%
14,O=C(Cn1c(=O)c2ccccc2n(CC(=O)N2CCCCC2)c1=O)N1CCCCC1,inconclusive: 147%
15,CN(C)c1cc(-c2cccc([N+](=O)[O-])c2)oc(=O)c1Cl,inconclusive: 136%
16,COc1cccc(CNC(=S)Nc2cc(C)cc(C)c2)c1,inconclusive: 104%
17,Cn1ncc(Br)c1N1C(=O)CCC1=O,inconclusive: 351%
18,CN(C)c1ccc(/C=N/NC(=O)CN(c2cccc(Cl)c2)S(C)(=O)=O)cc1Br,inactive: 104%
19,Cc1ccc(NC(=O)N[C@H](C(=O)O)C(C)C)c(C)c1,inconclusive: 85.5%
20,C=CCn1c(C)cc(C(=O)COC(=O)/C=C/c2cccc(OC)c2)c1C,inactive: 104%
21,CCn1nnc(NC(=O)c2ccc(-c3ccccc3[N+](=O)[O-])o2)n1,inconclusive: 76%
22,S=c1[nH]nc(-c2ccc3ccccc3n2)n1-c1ccc(Cl)cc1,inactive: 119%
23,Cc1ccc(-c2nc3sc4c(c3c(=O)n2N)CC(C)(C)OC4)cc1,inactive: 103%
